# Screening data, single-dose tests

Mtb glucose medium: 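Whole-cell growth test on Mycobacterium tuberculosis, read after 3 days in glucose-containing 7H9 medium; the read-out is not stated. Concentration: 50 µM. Higher reads as more growth inhibition (inferred: compounds with an IC50 in retests scored well above the rest). About 69,000 compounds were tested under these conditions; 1.1% (about 760) showed 50% or more at least once.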
Mtb cholesterol medium: 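Phenotypic screen: M. tuberculosis growth, cholesterol and DPPC medium, 4 days; the read-out is not stated. Compounds at 50 µM. The record gives no direction; compounds that gave an IC50 in retests scored well above the rest, so higher reads as more growth inhibition. About 69,000 compounds were tested under these conditions; 0.54% (about 370) showed 50% or more at least once.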

The filed quantity is “Percent Effect” (%). How 0% and 100% were set is not recorded. Most values in the screen are low, and negative values occur. Compounds were drawn at random from those tested, without regard to their results. Two or more numbers in one place are separate tests of the same structure; such repeats can differ widely.

| # | structure | Mtb glucose medium | Mtb cholesterol medium |
|---|---|---|---|
| 1 | `CCC(CC)N(C)S(=O)(=O)c1ccc(CCNC(C)=O)s1` | -7.887 | -21.97 |
| 2 | `CC(C)c1nnc2n1CC(CNCc1cccnc1)CC2` (centres undefined) | -4.598 | -10.07 |
| 3 | `O=C(O)c1c[nH]c2cc(NS(=O)(=O)c3cccc(F)c3F)ccc12` | -11.64 | -3.617 |
| 4 | `CSCCC1c2nc[nH]c2CCN1Cc1cc(Cl)ccc1O` (centres undefined) | 56.95 | 8.277 |
| 5 | `CC(Cn1cncc1-c1cnn(C2CCCCC2)c1)N1CCCCC1.Cl` (centres undefined) | 13.89 | 3.225 & -1.811 |
| 6 | `[H][C@@]12COC[C@]1(COCc1cccnc1)CN(C(=O)c1cnn(C)c1)C2` | 0.6641 | -19.33 |
| 7 | `CCc1nc2n(n1)CC(NCc1nnc(C(C)C)o1)CC2` (centres undefined) | -30.16 | -18.72 |
| 8 | `Cc1nn(C)c(N(C)C)c1CNCc1cccnc1-n1cncn1.Cl` | 9.438 | -5.001 |
| 9 | `O=C(c1ccc(C2CCCO2)s1)N1CCOCC1` (centres undefined) | 27.9 & 3.365 | 0.8217 |
| 10 | `[H][C@@]12CN(CC3CC3)C[C@]1([H])[C@H](OC)CCN2c1ncc(F)cn1` | 9.001 & 0.0299 | 6.327 |
| 11 | `Cc1ccc(OCC(C)NS(=O)(=O)N(C)C)cc1` (centres undefined) | 15.41 | 15.65 |
| 12 | `CC(C)c1cc(NCC2(CO)CCC2)ncn1` | -13.87 | -30.62 |
| 13 | `Cc1ccc(NC(=O)Cc2c(C)nc3c(c2C)c(=O)[nH]n3C)cc1F` | 7.259 | 7.89 |
| 14 | `COc1cc(CN2CCn3c(CO)nnc3C2)ccc1OC(C)C.O=C(O)CC(O)(CC(=O)O)C(=O)O` | -6.517 | -31.62 |
| 15 | `O=C(c1ccsc1)N1CCc2c(nc(-c3ccncc3)[nH]c2=O)C1` | -0.2532 & 16.99 | 4.023 |
| 16 | `Cc1cc(C)n(CC2CCCN2CC(=O)N(C)Cc2ccc(C)o2)n1` (centres undefined) | -9.798 | -55.77 |
| 17 | `CCN(CC)C(CNC(=O)c1ccc(-n2cncn2)cc1)c1ccsc1` (centres undefined) | -7.749 | 0.1456 |
| 18 | `CN(C)CCOCc1nnc2n1CCN(Cc1cccs1)CC2.O=C(O)C(F)(F)F.O=C(O)C(F)(F)F` | -43.05 | -26.01 |
| 19 | `Cc1cc(C)n(CC(C)Nc2ncnc3c2CCNC3)n1` (centres undefined) | 26.65 | 1.827 |
| 20 | `COc1ncccc1-c1nc(-c2ccccn2)nn1C1CCS(=O)(=O)C1` (centres undefined) | 11.81 | -15.09 |
| 21 | `CC(=O)N1CCN(CCNC(=O)c2nc3ccccc3c(=O)[nH]2)CC1` | -11.22 | -4.468 |
| 22 | `Cc1ccc(CNc2ccn(CCc3ccncc3)n2)s1` | 37.93 | 16.07 |
| 23 | `O=C(CCn1ccnc1)N1CC[C@H](Oc2ccc(F)cc2)[C@@H](O)CC1` | -19.95 | -3.294 & -13.44 |
| 24 | `Cc1ncc(CNC(=O)CCc2ccccc2F)c(C2CCCN2C)n1` (centres undefined) | 16.54 | 3.99 |
| 25 | `COc1ccc2c(c1)CCCN2C(=O)NCCc1cnn(C)c1` | -32.97 & -3.425 | -16.52 |
| 26 | `Cc1nn(CCNS(=O)(=O)c2ccccc2)c(C)c1Cl` | 8.122 | -23.43 |
| 27 | `Cn1ccnc1COc1ccc(CN2CCN(CCO)CC2)cc1` | -13.09 | -20.87 |
| 28 | `CC(=O)N1CCCN(C(=O)Cc2c(C)nc(C)[nH]c2=O)CC1` | -10.26 & -0.7271 | 5.563 |
| 29 | `O=C(NCC1(O)CCC1)c1c(O)cc(F)cc1F` | -31.27 | -18.7 |
| 30 | `Cc1nn(C)c(C)c1C1SCC(=O)Nc2c1c(O)nn2C(C)C` (centres undefined) | 24.01 | 3.137 |
| 31 | `COCCn1ccnc1C1CCN(c2cccc(C(=O)O)n2)CC1` | 26.44 | -3.266 |
| 32 | `Cc1ccc(-c2cc(C(=O)NCCCc3csc(N)n3)[nH]n2)s1` | 12.97 | 11.96 |
| 33 | `CC(C)c1n[nH]c(C2CN(C(=O)c3cnccn3)CCO2)n1` (centres undefined) | -24.35 | -15.7 |
| 34 | `CC(C)c1nnc(CN(C)C(c2ccccc2)c2ccc(F)cc2)o1` (centres undefined) | 32.54 & 23.07 | 16.25 |
| 35 | `CCCN(CCC)C(=O)c1cnn(C)c1C` | -32.82 | -15.89 |
| 36 | `COc1ccc(OCCN(C)C(=O)NC(C)c2nncn2C)cc1` (centres undefined) | -32.78 | -15.21 |
| 37 | `Cn1ccc(CN2CCCC23CCN(Cc2ccccc2F)CC3)n1.O=C(O)C(F)(F)F.O=C(O)C(F)(F)F` | -6.579 | 0.2991 |
| 38 | `O=C(O)[C@@H]1CN(C(=O)CC2CCCC2)C[C@H]1c1ccc(F)cc1` | -16.99 | -4.256 |
| 39 | `COC(=O)c1ccc(N(C(=O)c2cc(Cl)ccn2)C(C)C)c(C)c1` | -6.133 | -11.71 |
| 40 | `CC(C)N(C)S(=O)(=O)N(Cc1cccs1)Cc1cccs1` | 5.986 & 42.33 | 20.83 |
| 41 | `CCCn1c(C)c(CC(=O)N(C)CC(=O)OC)c2c1CC(C)(C)CC2=O` | 2.744 | -1.488 |
| 42 | `COc1cc(CN2CCCCCC2c2cccs2)cc(OC)c1O` (centres undefined) | -9.397 | -12.04 |
| 43 | `O=C(N1CCCC1)N1CCCC(c2nccn2Cc2ccncc2)C1` (centres undefined) | 16.79 | -4.136 & -5.519 |
| 44 | `CCOc1ccccc1CCNC(=O)NCC(O)c1ccsc1` (centres undefined) | 7.42 & 9.517 | 10.59 |
| 45 | `Cc1cnn(CC2CN(Cc3cccc(OC(C)C)c3)CCO2)c1` (centres undefined) | 32.94 | 12.35 |
| 46 | `Cc1occc1C(=O)N1CCC2(CCC2NC(=O)c2ccn(C)c2)CC1` (centres undefined) | 7.886 | -5.522 |
| 47 | `O=C1CCN(C(=O)NCc2cccc(Oc3ccccc3)c2)CCN1` | 0.1489 | 3.733 |
| 48 | `Cc1csc(C(C#N)C(=O)Nc2ccccc2)n1` (centres undefined) | -6.523 | -3.442 |
| 49 | `CCNc1cc2c(nn1)CCN(C(=O)CC1CCCC1)C2` | -1.161 | 5.854 |
| 50 | `Cc1n[nH]c(C)c1NC(=O)CN1CCc2c(nc(C(C)C)n2C)C1` | -11.11 & 1.8 | 0.8489 |
| 51 | `O=C(O)C(F)(F)F.[H][C@@]12CC(=O)N(c3cccnc3)[C@@]1([H])CCN2C(=O)c1ccco1` | -45.64 | -25.84 |
| 52 | `Cc1ccc(CN2CCNC(=O)C2CC(=O)N2CCSCC2)o1` (centres undefined) | -0.05825 | -1.675 & -22.13 |
| 53 | `COC(=O)CSCc1noc(-c2ccc(Cl)cc2)n1` | 60.14 & 56.09 | 20.64 |
| 54 | `CC(=O)NCCNC(=O)NCCCc1cccc(F)c1` | 11.8 | 0.7266 |
| 55 | `O=C(NCCn1ccnc1)NCC(c1ccco1)N1CCCCC1` (centres undefined) | 14.46 | -5.706 |
| 56 | `CNC(=O)C(C)NC(=O)c1cc(COc2ccc(OC)cc2Cl)[nH]n1` (centres undefined) | 14.45 & 5.415 | 10.72 |
| 57 | `[H][C@@]12CCN(Cc3cnn(C)c3)C[C@@]1([H])[C@H](C(=O)NC1CCCC1)CCO2` | 14.83 | 0.5224 |
| 58 | `COCCN1CC(C(=O)N(C)Cc2csc(C)n2)CC1=O` (centres undefined) | -29.36 | -10.58 |
| 59 | `CN(CCn1cnc(-c2ccccc2)c1-c1ncc[nH]1)S(C)(=O)=O` | -8.969 & -3.022 | -23.01 |
| 60 | `Cc1csc(CN2CC[C@@](O)(C3CCOCC3)[C@H](C)C2)n1` | -3.012 & -12.19 | -1.003 |
| 61 | `CC(COCC(F)(F)F)NC(=O)c1ccc(-c2ccco2)[nH]c1=O` (centres undefined) | -5.971 | -2.125 |

The last 8 entries again:

structure	Mtb glucose medium	Mtb cholesterol medium
CC(=O)NCCNC(=O)NCCCc1cccc(F)c1	11.8	0.7266
O=C(NCCn1ccnc1)NCC(c1ccco1)N1CCCCC1 (centres undefined)	14.46	-5.706
CNC(=O)C(C)NC(=O)c1cc(COc2ccc(OC)cc2Cl)[nH]n1 (centres undefined)	14.45 & 5.415	10.72
[H][C@@]12CCN(Cc3cnn(C)c3)C[C@@]1([H])[C@H](C(=O)NC1CCCC1)CCO2	14.83	0.5224
COCCN1CC(C(=O)N(C)Cc2csc(C)n2)CC1=O (centres undefined)	-29.36	-10.58
CN(CCn1cnc(-c2ccccc2)c1-c1ncc[nH]1)S(C)(=O)=O	-8.969 & -3.022	-23.01
Cc1csc(CN2CC[C@@](O)(C3CCOCC3)[C@H](C)C2)n1	-3.012 & -12.19	-1.003
CC(COCC(F)(F)F)NC(=O)c1ccc(-c2ccco2)[nH]c1=O (centres undefined)	-5.971	-2.125

Measurements from “University of Dundee, Small-Polar-MMV Screening Library” (2021), ChEMBL document CHEMBL3988442.